Measurements reported in PubChem BioAssay AID1508597 (Cure First, 2020)
The deposit covers about 2,100 reagents; below is a random part of them. 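Calls flag viability under 80% in either arm, not effects specific to rucaparib; the reference for percent is not stated.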 Entries without a mark were called inactive. Not given: the 100% reference.

Aim: 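Knock-downs altering ovarian cancer cell survival with or without PARP inhibitor rucaparib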 (primary screen)
Cells: human ovarian carcinoma lines grown from tumours: OCI-P5x (papillary serous) and OCI-C5x (clear cell)
Reagents: siRNA pool against human genes, 1.25 pmol siRNA per well
Time to read-out: 72 h or 96 h, depending on the cell culture
Treatment: rucaparib 20 µM (about IC30) or vehicle, present until read-out
Detection: 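Luminescent ATP-based viability assay read 72 or 96 h after transfection, depending on culture, given as normalised percent viability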
Scale: viability, normalised: higher = more viable cells remaining
Hit rule: 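Active when normalised viability falls below 80 percent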
Meaning of the calls: active = viability under 80%; inactive = viability 80% or more

Gene | rucaparib or vehicle | cell line | technical replicate | viability, normalised (%)
PRKCE (GeneID 5581) | Rucaparib | OCI-C5x (clear cell) | 1 | 47.5 (active)
PRKCE (GeneID 5581) | Rucaparib | OCI-C5x (clear cell) | 2 | 56.4 (active)
PRKCE (GeneID 5581) | Rucaparib | OCI-C5x (clear cell) | 3 | 60.4 (active)
PRKCE (GeneID 5581) | Rucaparib | OCI-P5x (serous) | 1 | 126
PRKCE (GeneID 5581) | Rucaparib | OCI-P5x (serous) | 2 | 133
PRKCE (GeneID 5581) | Rucaparib | OCI-P5x (serous) | 3 | 105
PRKCE (GeneID 5581) | Vehicle | OCI-C5x (clear cell) | 1 | 55.5 (active)
PRKCE (GeneID 5581) | Vehicle | OCI-C5x (clear cell) | 2 | 42.2 (active)
PRKCE (GeneID 5581) | Vehicle | OCI-C5x (clear cell) | 3 | 41.1 (active)
PRKCE (GeneID 5581) | Vehicle | OCI-P5x (serous) | 1 | 83.5
PRKCE (GeneID 5581) | Vehicle | OCI-P5x (serous) | 2 | 80.2
PRKCE (GeneID 5581) | Vehicle | OCI-P5x (serous) | 3 | 89.5
XYLB (GeneID 9942) | Rucaparib | OCI-C5x (clear cell) | 1 | 48.3 (active)
XYLB (GeneID 9942) | Rucaparib | OCI-C5x (clear cell) | 2 | 48 (active)
XYLB (GeneID 9942) | Rucaparib | OCI-C5x (clear cell) | 3 | 50.7 (active)
XYLB (GeneID 9942) | Rucaparib | OCI-P5x (serous) | 1 | 87.8
XYLB (GeneID 9942) | Rucaparib | OCI-P5x (serous) | 2 | 112
XYLB (GeneID 9942) | Rucaparib | OCI-P5x (serous) | 3 | 93.5
XYLB (GeneID 9942) | Vehicle | OCI-C5x (clear cell) | 1 | 53.6 (active)
XYLB (GeneID 9942) | Vehicle | OCI-C5x (clear cell) | 2 | 60.3 (active)
XYLB (GeneID 9942) | Vehicle | OCI-C5x (clear cell) | 3 | 34.6 (active)
XYLB (GeneID 9942) | Vehicle | OCI-P5x (serous) | 1 | 95.7
XYLB (GeneID 9942) | Vehicle | OCI-P5x (serous) | 2 | 79.5 (active)
XYLB (GeneID 9942) | Vehicle | OCI-P5x (serous) | 3 | 89.8
CLDN10 (GeneID 9071) | Rucaparib | OCI-C5x (clear cell) | 1 | 37.9 (active)
CLDN10 (GeneID 9071) | Rucaparib | OCI-C5x (clear cell) | 2 | 51.2 (active)
CLDN10 (GeneID 9071) | Rucaparib | OCI-C5x (clear cell) | 3 | 51.6 (active)
CLDN10 (GeneID 9071) | Rucaparib | OCI-P5x (serous) | 1 | 58.5 (active)
CLDN10 (GeneID 9071) | Rucaparib | OCI-P5x (serous) | 2 | 58.8 (active)
CLDN10 (GeneID 9071) | Rucaparib | OCI-P5x (serous) | 3 | 32.8 (active)
CLDN10 (GeneID 9071) | Vehicle | OCI-C5x (clear cell) | 1 | 24.9 (active)
CLDN10 (GeneID 9071) | Vehicle | OCI-C5x (clear cell) | 2 | 50.8 (active)
CLDN10 (GeneID 9071) | Vehicle | OCI-C5x (clear cell) | 3 | 41.9 (active)
CLDN10 (GeneID 9071) | Vehicle | OCI-P5x (serous) | 1 | 72.2 (active)
CLDN10 (GeneID 9071) | Vehicle | OCI-P5x (serous) | 2 | 73.3 (active)
CLDN10 (GeneID 9071) | Vehicle | OCI-P5x (serous) | 3 | 74 (active)
PRDM7 (GeneID 11105) | Rucaparib | OCI-C5x (clear cell) | 1 | 48.2 (active)
PRDM7 (GeneID 11105) | Rucaparib | OCI-C5x (clear cell) | 2 | 34.1 (active)
PRDM7 (GeneID 11105) | Rucaparib | OCI-C5x (clear cell) | 3 | 41.6 (active)
PRDM7 (GeneID 11105) | Rucaparib | OCI-P5x (serous) | 1 | 59.8 (active)
PRDM7 (GeneID 11105) | Rucaparib | OCI-P5x (serous) | 2 | 54.8 (active)
PRDM7 (GeneID 11105) | Rucaparib | OCI-P5x (serous) | 3 | 55 (active)
PRDM7 (GeneID 11105) | Vehicle | OCI-C5x (clear cell) | 1 | 41.4 (active)
PRDM7 (GeneID 11105) | Vehicle | OCI-C5x (clear cell) | 2 | 39.1 (active)
PRDM7 (GeneID 11105) | Vehicle | OCI-C5x (clear cell) | 3 | 39.1 (active)
PRDM7 (GeneID 11105) | Vehicle | OCI-P5x (serous) | 1 | 63.9 (active)
PRDM7 (GeneID 11105) | Vehicle | OCI-P5x (serous) | 2 | 68.8 (active)
PRDM7 (GeneID 11105) | Vehicle | OCI-P5x (serous) | 3 | 87.6
KAT8 (GeneID 84148) | Rucaparib | OCI-C5x (clear cell) | 1 | 42.4 (active)
KAT8 (GeneID 84148) | Rucaparib | OCI-C5x (clear cell) | 2 | 50.8 (active)
KAT8 (GeneID 84148) | Rucaparib | OCI-C5x (clear cell) | 3 | 49.1 (active)
KAT8 (GeneID 84148) | Rucaparib | OCI-P5x (serous) | 1 | 49.5 (active)
KAT8 (GeneID 84148) | Rucaparib | OCI-P5x (serous) | 2 | 60.7 (active)
KAT8 (GeneID 84148) | Rucaparib | OCI-P5x (serous) | 3 | 56.6 (active)
KAT8 (GeneID 84148) | Vehicle | OCI-C5x (clear cell) | 1 | 44.3 (active)
KAT8 (GeneID 84148) | Vehicle | OCI-C5x (clear cell) | 2 | 23.3 (active)
KAT8 (GeneID 84148) | Vehicle | OCI-C5x (clear cell) | 3 | 32.1 (active)
KAT8 (GeneID 84148) | Vehicle | OCI-P5x (serous) | 1 | 42.6 (active)
KAT8 (GeneID 84148) | Vehicle | OCI-P5x (serous) | 2 | 35.3 (active)
KAT8 (GeneID 84148) | Vehicle | OCI-P5x (serous) | 3 | 62.8 (active)

Reformatted: 4 of the entries above.
| Gene | rucaparib or vehicle | cell line | technical replicate | viability, normalised (%) |
| --- | --- | --- | --- | --- |
| XYLB (GeneID 9942) | Vehicle | OCI-P5x (serous) | 3 | 89.8 |
| CLDN10 (GeneID 9071) | Rucaparib | OCI-C5x (clear cell) | 1 | 37.9 (active) |
| CLDN10 (GeneID 9071) | Rucaparib | OCI-C5x (clear cell) | 2 | 51.2 (active) |
| CLDN10 (GeneID 9071) | Rucaparib | OCI-C5x (clear cell) | 3 | 51.6 (active) |
